Results as given in paper doi:10.1101/2020.10.06.328815.
These are yes or no findings as the source states them, for the method shown. Binding seen in cells or lysates may run through a third protein. Some results given as binding are weak or reduced against the parent protein; the word gives no strength.

Chains of the proteins cited; added tags and fusions are not shown. Lines headed by an entry give the natural chain unless they say otherwise; changes in a name come on top. Residues count along the entry.
UniProt Q7M3K2, 1-140: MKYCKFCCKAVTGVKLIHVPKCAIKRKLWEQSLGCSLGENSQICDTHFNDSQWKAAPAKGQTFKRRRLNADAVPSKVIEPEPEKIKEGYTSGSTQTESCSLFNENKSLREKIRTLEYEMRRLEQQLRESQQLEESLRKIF

Experiments:
[1] = target: truncated hTHAP9 H2 (residues 1-165) (human) (UniProt Q9H5L6); test: co-IP
[2] = target: truncated hTHAP9 H2 (residues 1-165) (human) (UniProt Q9H5L6); test: proximity ligation
[3] = target: truncated hTHAP9 H1 (residues 1-176) (human) (UniProt Q9H5L6); test: proximity ligation
[4] = target: truncated Drosophila P element transposase D (residues 1-140) (Drosophila) (UniProt Q7M3K2); test: proximity ligation
[5] = target: truncated Drosophila P element transposase D (residues 1-140) (Drosophila) (UniProt Q7M3K2); test: co-IP
[6] = target: full length human THAP9 (hTHAP9) (human) (UniProt Q9H5L6); test: pull-down

Molecule | binding [1] | other results
L132A_H2H (from UniProt Q9H5L6 1-165) (domain or fragment) | binds | 
truncated hTHAP9 H2 (residues 1-165) (from UniProt Q9H5L6 1-165) (domain or fragment) | binds | binding [2]: binds
L128A_H2H (from UniProt Q9H5L6 1-165) (domain or fragment) | binds | 
L146A+L153A_H2H (from UniProt Q9H5L6 1-165) (domain or fragment) | binds | 
L139A_H2H (from UniProt Q9H5L6 1-165) (domain or fragment) | binds | 
hTHAP9 deletion mutant H_Del-H (residues 1-144) (from UniProt Q9H5L6 1-144) (domain or fragment) | binds | 
truncated hTHAP9 H1 (residues 1-176) (from UniProt Q9H5L6 1-176) (domain or fragment) |  | binding [3]: binds
truncated Drosophila P element transposase D (residues 1-140) (from UniProt Q7M3K2 1-140) (domain or fragment) |  | binding [4]: binds; binding [5]: binds
H2(all)-H (L90A, L128A, L132A, L139A, L146A, L153A) (from UniProt Q9H5L6 1-165) (domain or fragment) | binds | 
full length human THAP9 (hTHAP9) (protein, UniProt Q9H5L6 1-903) MTRSCSAVGCSTRDTVLSRERGLSFHQFPTDTIQRSKWIRAVNRVDPRSKKIWIPGPGAILCSKHFQESDFESYGIRRKLKKGAVPSVSLYKIPQGVHLKGKARQKILKQPLPDNSQEVATEDHNYSLKTPLTIGAEKLAEVQQMLQVSKKRLISVKNYRMIKKRKGLRLIDALVEEKLLSEETECLLRAQFSDFKWELYNWRETDEYSAEMKQFACTLYLCSSKVYDYVRKILKLPHSSILRTWLSKCQPSPGFNSNIFSFLQRRVENGDQLYQYCSLLIKSMPLKQQLQWDPSSHSLQGFMDFGLGKLDADETPLASETVLLMAVGIFGHWRTPLGYFFVNRASGYLQAQLLRLTIGKLSDIGITVLAVTSDATAHSVQMAKALGIHIDGDDMKCTFQHPSSSSQQIAYFFDSCHLLRLIRNAFQNFQSIQFINGIAHWQHLVELVALEEQELSNMERIPSTLANLKNHVLKVNSATQLFSESVASALEYLLSLDLPPFQNCIGTIHFLRLINNLFDIFNSRNCYGKGLKGPLLPETYSKINHVLIEAKTIFVTLSDTSNNQIIKGKQKLGFLGFLLNAESLKWLYQNYVFPKVMPFPYLLTYKFSHDHLELFLKMLRQVLVTSSSPTCMAFQKAYYNLETRYKFQDEVFLSKVSIFDISIARRKDLALWTVQRQYGVSVTKTVFHEEGICQDWSHCSLSEALLDLSDHRRNLICYAGYVANKLSALLTCEDCITALYASDLKASKIGSLLFVKKKNGLHFPSESLCRVINICERVVRTHSRMAIFELVSKQRELYLQQKILCELSGHINLFVDVNKHLFDGEVCAINHFVKLLKDIIICFLNIRAKNVAQNPLKHHSERTDMKTLSRKHWSSVQDYKCSSFANTSSKFRHLLSNDGYPFK |  | binding [6]: binds
